Source: article PMC12366701
No constants are given. Whether binding was seen depends on the method and setting.

Molecular target: human TTLL11 (hTTLL11), full-length (human) (UniProt Q8NHH1)
Assay: SEC; Superose 6 Increase 10/300 GL; 50 mM tris-HCl pH 8, 140 mM NaCl, 10 mM KCl, 1 mM EDTA, 0.5 mM TCEP, 5% glycerol; both purified

binding: no binding
B1: human TTLL11 (hTTLL11), full-length (enzyme, UniProt Q8NHH1 1-710)
chain: MRRGSSESELAARWEAEAVAAAKAAAKAEAEATAETVAEQVRVDAGAAGEPECKAGEEQPKVLAPAPAQPSAAEEGNTQVLQRPPPTLPPSKPKPVQGLCPHGKPRDKGRSCKRSSGHGSGENGSQRPVTVDSSKARTSLDALKISIRQLKWKEFPFGRRLPCDIYWHGVSFHDNDIFSGQVNKFPGMTEMVRKITLSRAVRTMQNLFPEEYNFYPRSWILPDEFQLFVAQVQMVKDDDPSWKPTFIVKPDGGCQGDGIYLIKDPSDIRLAGTLQSRPAVVQEYICKPLLIDKLKFDIRLYVLLKSLDPLEIYIAKDGLSRFCTEPYQEPTPKNLHRIFMHLTNYSLNIHSGNFIHSDSASTGSKRTFSSILCRLSSKGVDIKKVWSDIISVVIKTVIALTPELKVFYQSDIPTGRPGPTCFQILGFDILLMKNLKPILLEVNANPSMRIEHEHELSPGVFENVPSLVDEEVKVAVIRDTLRLMDPLKKKRENQSQQLEKPFAGKEDALDGELTSAPDCNANPEAHLPSICLKQVFPKYAKQFNYLRLVDRMANLFIRFLGIKGTMKLGPTGFRTFIRSCKLSSSSLSMAAVDILYIDITRRWNSMTLDQRDSGMCLQAFVEAFFFLAQRKFKMLPLHEQVASLIDLCEYHLSLLDEKRLVCGRGVPSGGRPPHRGPPQEPSPSAQPAGDNPPPRTSCANKLSHPRHTLS
modifications: Janelia Fluor 549-HALO probe on the HALO tag (TIRF assay)
